Test results published in patent publication US20120009183A1, “METHOD FOR TREATMENT OF PANCREATITIS” (Ore Pharmaceuticals Inc., priority 2007, published 2012).
At least one structure is not confirmed: it was looked up by name or label, or the drawing left a doubt.

Legend:
[1] = system: DSS induced colitis; experiment: Dextran sodium sulfate (DSS) induced colitis (IBD) in NF-κB::Luc mice; assay type: in vivo; settings: 100 mg/kg s.c. per day, 2.5% DSS
[2] = system: NF-κB dependent transcription; experiment: In vivo basal NF-κB dependent transcription in NF-κB::Luc reporter mice, abdominal imaging; settings: both lower doses, s.c., 4 hours post administration
Description: GL1001 was further tested for in vivo anti-inflammatory activity by examining its effects on basal levels of NF-κB dependent transcription in mice engineered in the germline with a construct containing an NF-κB enhancer linked to a luciferase gene (i.e., NF-κB::Luc mice), such that this NF-κB reporter construct is present in all cells of the mice.
More particularly, transgenic NF-κB::Luc mice were generated using three NF-κB response elements from the Igκ light chain promoter fused to a firefly luciferase gene as described by Carlsen et al. (2002) J. Immunol. 168:1441-1446. Pronuclear microinjection of purified construct DNA was used to generate transgenic founders in the C57BL/6 XCBA/J background. Founders were subsequently back crossed to the C57BL/6 albino background. […] Signal data were also quantitated and archived using the Living Image® software. Photons of light were quantitated using an oval region of interest (ROI) of varying sizes depending on the procedure, as described further below.
To test for in vivo effects of GL1001 on basal levels of NF-κB dependent transcription, male NF-κB::Luc mice were subjected to quantitative in vivo imaging of the abdominal area (using a fixed ROI of 2.76×3.7 cm) as described above, immediately before, and at 2, […]

[3] = system: NF-κB dependent transcription; experiment: TNFα-induced activation of NF-κB in recombinant HeLa reporter cells (luciferase); assay type: cell-based; settings: all tested concentrations (0.008-5.0 μM)
Description: To test the ACE2 inhibitor GL1001 for anti-inflammatory activity relevant to gastrointestinal inflammatory disease, more particularly pancreatitis, effects of the compound on activation of NF-κB dependent transcription by TNFα were examined in recombinant reporter cells containing a construct with a luciferase reporter gene under control of NF-κB dependent regulatory sequences, thereby allowing detection of NF-κB dependent transcription by measuring reporter enzyme using a conventional luciferase activity assay based on detection of generated light.
In particular, HeLa cells (American Type Culture Collection) were grown in Dulbecco's modified Eagles medium (DMEM) supplemented with 10% fetal calf serum and transiently transfected with an NF-κB-luc construct (Stratagene, Inc.), as follows (with all incubation steps at 37 C unless otherwise indicated). Cells were seeded and grown to about 70% confluency in a 10 cm cell culture dish. Plasmid DNA (10 μg) was added to 1 ml serum free DMEM media in a tube. Fugene 6 transfection reagent (30 μl) (Roche) was then pipetted slowly into the tube and the contents were gently mixed by inversion. The mixture was incubated at room temperature for 15 minutes and then added dropwise to cells in one 10 cm dish. […] Bioluminescence was then measured using a Veritas luminometer (Turner BioSystems). […]

[4] = system: NF-κB dependent transcription; experiment: In vivo LPS-induced NF-κB dependent transcription in NF-κB::Luc mice, abdominal imaging
[5] = system: cerulein-induced CP; experiment: Cerulein-induced chronic pancreatitis model (planned); assay type: in vivo, mice; settings: cerulein+GL1001 (e.g. 100 mg/kg s.c. daily) vs cerulein only; planned study
[6] = system: plasma cytokines eotaxin, IL-10, IL-1α, TNFα; experiment: Plasma cytokines after LPS induction in NF-κB::Luc mice (Luminex); assay type: in vivo; settings: 1 mg/kg LPS, 4 hours, vs LPS+vehicle
[7] = system: NF-κB dependent transcription; experiment: LPS-induced NF-κB dependent transcription in extracted organs of NF-κB::Luc mice (luciferase assay); assay type: in vivo; settings: 30 mg/kg GL1001 + 0.5 mg/kg LPS vs LPS alone, liver, kidney, spleen, intestines etc.
Description: For luciferase assays, organs were extracted and snap frozen in liquid nitrogen. All tissue samples were placed in lysis buffer with inhibitors (Passive Lysis Buffer (Promega) and Complete Mini Protease Inhibitor Cocktail (Roche, Indianapolis, Ind.)), and were homogenized using a tissue homogenizer (Handishear, Hand-held homogenizer, VirTis, Gardiner, N.Y.). Tissue homogenates were centrifuged and clarified lysates were used for luminometer assays and western blots. For the luminometer assays, Luciferase Assay Substrate (Luciferase Assay System, Promega) was prepared as indicated by the manufacturer and placed in disposable cuvettes. […] Background luminescence readings were obtained and the background readings were subtracted from the luminescent data. Protein concentrations were determined using the BCA Protein Assay Kit (Pierce, Rockford, Ill.) following the manufacturer's protocols and analyzed using a VERSAmax tuneable microplate reader and associated Softmax Pro version 3.1.2 software (Molecular Devices, Sunnyvale Calif.). The luminescence for each of the protein lysates was calculated as arbitrary units of light per microgram of protein. […]
GL1001 was further tested for in vivo anti-inflammatory activity by examining its effects on bacterial LPS induced NF-κB dependent transcription, in NF-κB::Luc mice. […] Luciferase signal was quantitated from several regions of interest. […]

[8] = system: spontaneous CP in male WBN/Kob rats; settings: Yamada et al. (2003); cited from earlier work

| Structure (SMILES) | IBD activity index (disease activity) ([1]; between days 3 and 8) | reduction in body weight ([1]; between days 4 and 9, vs DSS only) | DSS induced organ weight increases (organ/body weight) in cecum and large intestine (colon) ([1]; end of study) | abdominal NF-κB-driven luciferase expression, DSS only vs DSS+GL1001 ([1]; from study day 6) | inhibition of basal in vivo NF-κB dependent transcription in abdominal ROI [2] | inhibition of TNFα induced activation of NF-κB dependent transcription [3] | LPS induced NF-κB signaling response, abdominal region ([4]; 30, 100, 300 mg/kg s.c. 1 hour before LPS i.v., FIG. 4) | LPS-induced in vivo NF-κB dependent transcription, whole-body imaging ([4]; Example 5: 100 or 300 mg/kg s.c., 1 mg/kg LPS i.v., 4 hours, data not shown) | LPS induced NF-κB signaling, abdominal region ([4]; repeat, lower dose range 3-100 mg/kg, effect at 30 and 100 mg/kg, FIG. 5) | pancreatic damage and inflammation [5] | plasma IL-10 expression ([6]; 300 mg/kg s.c.) | plasma IL-1α expression ([6]; 100 and 300 mg/kg s.c.) | plasma TNFα expression ([6]; 100 and 300 mg/kg s.c.) | plasma eotaxin expression ([6]; 100 and 300 mg/kg s.c.) | decrease in LPS induced NF-κB signaling in pancreas and uterus, or any other organ analyzed [7] | CP and fibrosis in WBN/Kob rat model [8] |
| --- | --- | --- | --- | --- | --- | --- | --- | --- | --- | --- | --- | --- | --- | --- | --- | --- |
| CC(C)C[C@H](N[C@@H](Cc1cncn1Cc1cc(Cl)cc(Cl)c1)C(=O)O)C(=O)O [GL1001, (S,S)-2-[1-carboxy-2-[3-(3,5-dichlorobenzyl)-3H-imidazol-4-yl]-ethylamino]-4-methylpentanoic acid] | slight delay | significantly delayed | completely prevented | non-statistically significant divergence | lesser but still significant extents | significantly inhibited | significantly reduced | significantly inhibited | significantly reduced | attenuated pancreatic damage and inflammation | enhanced | significant and dose-dependent decrease | significant and dose-dependent decrease | significant and dose-dependent decrease | no statistically significant decrease |  |
| CCOc1nc2cccc(C(=O)O)c2n1Cc1ccc(-c2ccccc2-c2nnn[nH]2)cc1 [candesartan] |  |  |  |  |  |  |  |  |  |  |  |  |  |  |  | alleviated |
